Reference: PubChem BioAssay AID662 (National Center for Advancing Translational Sciences (NCATS), 2007)
Several values for one entry are separate records, joined by “and”; a condition that tells them apart may be missing. Equal entries are not always repeated. This is one part of the list. The main result of the screen is listed elsewhere. These columns were measured beside it and carry no call. Most of these compounds were active or inconclusive in the main read-out, so they are no random draw. Potencies come from curve fits of mixed quality, noted in brackets.

Assay: Cell signaling CRE-BLA (Fsk stim)
Details: CHO CRE-bla reporter (cAMP response element driving beta-lactamase), forskolin EC10, beta-lactamase ratio; measured here: 460 nm blue channel
Outline: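 Beta-lactamase reporter under a cAMP responsive element in CHO cells; compounds tested in titration series against EC10 NKH 477, 3 h at 37 °C. Read-out: CCF4 FRET ratio 460nm/530nm (excitation 405nm) giving %Activity, fitted to AC50.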

| Structure (SMILES) | AC50 |
| --- | --- |
| CC(C)Cn1c(SCC(=O)NC(=O)NC2CCCC2)nc2ccccc21 | 0.398 µM [falling, partial curve] |
| O=C(Cc1cn2ccsc2n1)NCCc1ccc(F)cc1 | 5.01 µM [falling, single point] |
| Cc1ccc(Nc2cc(C)nc3nc(C)nn23)cc1 | 10 µM [rising, partial curve] |
| O=C(Oc1cc2oc(=O)c3c(c2cc1Cl)CCCC3)c1ccco1 | 15.8 µM [rising, single point] |
| COc1ccc(CCNC(=O)Cn2cnc3c(cnn3C(C)(C)C)c2=O)cc1OC | 3.98 µM [rising, partial curve] |
| CCCCOCCCNC(=O)c1ccccc1OCC | 0.126 µM [rising, full curve] |
| CCC(Oc1ccccc1)C(=O)N1CCN(c2ccccn2)CC1 (stereo not drawn) | 0.1 µM [falling, partial curve] |
| COC(=O)C1C(=O)c2c([nH]c(C(=O)OC3CCCC3C)c2C)CC1C (stereo not drawn) | 0.316 µM [rising, full curve, poor fit] |
| CCN(CCCNC(=O)c1c(C)cc(=O)oc1C)c1cccc(C)c1 | 25.1 µM [rising, single point] |
| COc1ccccc1C(=O)N1CCc2ccccc21 | 0.631 µM [falling, full curve, poor fit] |
| O=C(NCCn1ccc2ccccc21)c1ccc(S(=O)(=O)N2CCCCC2)cc1 | 10 µM [rising, partial curve] |
| CCN(CC)c1nc(N(CC)CC)[nH]c(=O)n1 | 0.00398 µM [falling, full curve, poor fit] |
| COc1ccc(N/C(C)=C2/C(=O)C(=O)N(CCO)C2c2ccc(Br)cc2)cc1 (stereo not drawn) | 31.6 µM [falling, single point] |
| N#Cc1cc2c(=O)n3ccccc3nc2n(CCCn2ccnc2)c1=N | 10 µM [rising, partial curve] |
| Cc1ccc(NC(=O)c2cc(-c3ccc(C)o3)nc3ccccc23)nc1 | 20 µM [rising, single point] |
| CC1(C)Cc2ccccc2C2CC(O)C(=O)N21 (stereo not drawn) | 12.6 µM [falling, single point] |
| O=C(c1ccncc1)c1nccn1-c1ccccn1 | 3.98 µM [falling, single point] |
| OC(CN1c2ccccc2Sc2ccccc21)Cn1nnc2ccccc21 (stereo not drawn) | 10 µM [falling, single point] |
| Cc1cc(C)c(C#N)c(N2CCCC2)n1 | 25.1 µM [rising, single point] |
| Cc1ccc(C(=O)Nc2ncc(Cc3ccc(F)cc3)s2)o1 | 1.26 µM [rising, full curve, poor fit] |
| Fc1ccc(-n2c(Cc3ccccc3)nnc2SCc2nc(-c3cccs3)no2)cc1 | 12.6 µM [rising, single point] |
| Cc1cc(C)nc(-n2c(Nc3ccccc3)cc(=O)c3c(C)n(-c4ccccc4)c(=O)nc32)n1 | 1.26 µM [falling, partial curve] |
| CCOc1ccccc1-c1nc(-c2ccc(C)nc2OC)no1 | 12.6 µM [rising, partial curve] |

| Structure (SMILES) | AC50 |
| --- | --- |
| COc1cc(-c2nnc(SCc3cc(=O)oc4cc(C)ccc34)o2)cc(OC)c1OC | 2.51 µM [rising, full curve] |
| Cn1cc(CN2CCc3ccccc3C2)c2ccccc21 | 12.6 µM [falling, single point] |
| CCN(C(=O)c1cn(CC)c(=O)c2cc(OC)c(OC)cc12)c1ccccc1C | 12.6 µM [rising, single point] |
| N#CCCn1c(=O)c(-c2cccs2)nc2cnc(OCc3ccccc3)nc21 | 1.26 µM [rising, full curve] |
| Cc1ccc(C)c(-n2nnnc2SCC(=O)c2ccc3c(c2)NC(=O)CO3)c1 | 12.6 µM [falling, partial curve, poor fit] |
| O=C(NCCC1=CCCCC1)C1CCN(S(=O)(=O)c2cccs2)CC1 | 0.501 µM [falling, partial curve] |
| Cc1cc(C)nc(NC(=NCCc2c[nH]c3ccccc23)NC(=O)c2ccco2)n1 | 0.316 µM [rising, partial curve] |
| Cc1nc2ccccn2c1P(=O)(N1CCCCC1)N1CCCCC1 | 1.58 µM [falling, partial curve] |
| CCOC(=O)c1c(C)[nH]c(C(=O)Cn2nnc(-c3ccccc3)n2)c1C | 3.16 µM [rising, full curve] |
| CCN(CC)c1ccc(/C=N/n2nnnc2N)c(O)c1 | 12.6 µM [rising, partial curve] |
| O=C(O)C1CCN(S(=O)(=O)c2cccnc2)CC1 | 25.1 µM [rising, partial curve] |
| CCn1nnc(-c2ccccc2NC(=O)c2cc(OC)c(OC)c(OC)c2)n1 | 2 µM [rising, full curve] |
| CCC(C)NC(=O)c1c(C)cc(=O)oc1C (stereo not drawn) | 0.126 µM [falling, full curve, poor fit] |
| CCC(OC(=O)C(NC(=O)c1ccccc1)c1ccccc1)C(=O)Nc1cc(C)on1 (stereo not drawn) | 1.26 µM [falling, partial curve, poor fit] |
| COc1ccc(C(=O)OCn2nnc3ccccc3c2=O)cc1OC | 2 µM [rising, full curve] |
| [N-]=[N+]=CC(=O)C(Cc1ccccc1)N1C(=O)c2ccccc2C1=O (stereo not drawn) | 3.98 µM [rising, single point] |
| COc1ccccc1N1CCN(CC(=O)Nc2cccc(F)c2)CC1 | 0.398 µM [falling, full curve] |
| CN1CCN(c2ncc3nc(-c4ccc(Cl)cc4)c(=O)n(C)c3n2)CC1 | 2 µM [rising, full curve] |
| CCC(C)Nc1nc2c(c(=O)n(C)c(=O)n2C)n1Cc1cccc(C)c1 (stereo not drawn) | 10 µM [rising, single point] |
| CN1CC(=O)NC1=NC(=O)C12CC3CC(CC(C3)C1)C2 | 3.16 µM [falling, single point] |
| CCOC(=O)c1ccccc1NC(=O)c1cc2sccc2n1C | 10 µM [rising, partial curve] |
| COCCn1c(=O)c(-c2cccc(C#N)c2)nc2cnc(Nc3ccccc3)nc21 | 3.98 µM [rising, partial curve] |
| Cc1ccc(S(=O)(=O)c2c(N)n(/N=C/c3ccco3)c3nc4ccccc4nc23)cc1C | 10 µM [rising, partial curve] |

| Structure (SMILES) | AC50 |
| --- | --- |
| CC(C)c1nc(N2CCOCC2)c(C#N)c2c1CCCC2 | 12.6 µM [rising, partial curve, poor fit] |
| COc1nnc(-c2ccc(N3CCOCC3)c(NC(=O)c3ccco3)c2)c2ccccc12 | 2.51 µM [rising, full curve] |
| COCCn1c(=O)c(CCc2ccccc2)nc2cnc(N3CCOCC3)nc21 | 20 µM [rising, partial curve] |
| CCc1cc(=O)oc2c(C)c(O)c(CN(C)C)cc12 | 12.6 µM [rising, partial curve] |
| CCOC(=O)N1CCN(C(=O)c2ccc(Cn3c(=S)[nH]c4cc5c(cc4c3=O)OCO5)cc2)CC1 | 0.0631 µM [falling, full curve, poor fit] |
| Cc1ccc(OCC(=O)Nc2cccc(-c3nnc(-c4ccccc4)o3)c2)cc1 | 0.00398 µM [falling, full curve, poor fit] |
| COc1cccc(C2=NOC(C(=O)NCc3ccc(F)cc3)C2)c1 (stereo not drawn) | 12.6 µM [rising, partial curve] |
| Cn1c(NC(=O)c2ccccc2Br)cc(=O)n(C)c1=O | 10 µM [rising, partial curve] |
| O=c1c(-c2ccccc2)nc2cnc(N3CCNCC3)nc2n1Cc1cccs1 | 2.51 µM [rising, full curve] |
| NC1=C(c2ccc(F)cc2)C(=O)CS1 | 12.6 µM [rising, single point] |
| CCN1CCN(Cc2c(O)c(Cl)cc3c(C)cc(=O)oc23)CC1 | 3.16 µM [rising, partial curve] |
| CC(=O)O[C@]1(C(C)=O)CC[C@@H]2[C@@H]3C=C(C)C4=CC(=O)CC[C@@]4(C)[C@H]3CC[C@]21C | 10 µM [rising, partial curve, poor fit] |
| CCN1CCCC1CNC(=O)c1cc2c(-c3cccc(OC)c3)nn(C)c2s1 (stereo not drawn) | 10 µM [rising, single point] |
| CCCCOc1cc(C[C@@H]2CNC(=O)N2)ccc1OC | 5.01 µM [rising, full curve] and 100 nM [rising, full curve] |
| CCn1c(SCC(=O)NCc2ccco2)nc2c1c(=O)n(C)c(=O)n2C | 0.251 µM [falling, full curve, poor fit] |
| O=C(CCNc1ccc(F)c(Cl)c1)c1ccco1 | 0.631 µM [falling, full curve] |
| O=S(=O)(c1ccc2c(c1)OCCO2)N1CCC(c2nc3ccc(Cl)cc3[nH]2)CC1 | 0.794 µM [falling, full curve] |
| CC1CN(Cc2ccc(C#N)cc2Cl)CC(C)O1 (stereo not drawn) | 5.01 µM [rising, single point] |
| O=C(Cn1cnc2c(nnn2-c2ccc(F)cc2)c1=O)N1CCCc2ccccc21 | 1.26 µM [falling, partial curve] |
| COc1ccc(S(=O)(=O)Nc2ccc(F)c(F)c2)cc1Cl | 0.00316 µM [falling, full curve, poor fit] |
| O=C1c2cccc3c(N4CCCCC4)ccc(c23)C(=O)N1c1ccccn1 | 20 µM [falling, single point] |
| COc1ccccc1-c1nnc(SCC(=O)NCc2c(C)c(Cl)cc(C(C)C)c2O)o1 | 25.1 µM [falling, single point] |

Rewritten field by field: four of the compounds above.
CCCCOc1cc(C[C@@H]2CNC(=O)N2)ccc1OC
  AC50: 5.01 µM [rising, full curve] and 100 nM [rising, full curve]
CCn1c(SCC(=O)NCc2ccco2)nc2c1c(=O)n(C)c(=O)n2C
  AC50: 0.251 µM [falling, full curve, poor fit]
O=C(CCNc1ccc(F)c(Cl)c1)c1ccco1
  AC50: 0.631 µM [falling, full curve]
O=S(=O)(c1ccc2c(c1)OCCO2)N1CCC(c2nc3ccc(Cl)cc3[nH]2)CC1
  AC50: 0.794 µM [falling, full curve]
